{"source": "patent US11052082B2", "about": "(priority 2012, dated 2021)", "test_system": "ALL-SCID6 xenograft", "assay": "Patient-derived ALL-xenograft tumour growth", "format": "in vivo, NOD/SCID/IL2ry null (NSG) mice", "conditions": "D,L-methadone orally day 1-76, 20 up to 120 mg/kg/day; doxorubicin 3 mg/kg i.v. day 46, 53, 60, 76", "note": "Counter-ions that a name gives are not always drawn."}
{"smiles": "CCC(=O)C(CC(C)N(C)C)(c1ccccc1)c1ccccc1", "note": "(racemic) [D,L-methadone, D,L-methadone hydrochloride]", "values": [{"measurement": "tumour growth inhibition", "value": "significant inhibition of tumour growth"}]}
